Data as given in paper doi:10.1101/2020.04.25.061234.
No constants are given. Whether binding was seen depends on the method and setting. Binding seen in cells or lysates may run through a third protein. Some results given as binding are weak or reduced against the parent protein; the word gives no strength. Where a sequence is shown, tags or fusion partners need not be part of it.

Chains of the proteins cited; added tags and fusions are not shown. Residues count along the entry.
UniProt P07948, residues 63-123: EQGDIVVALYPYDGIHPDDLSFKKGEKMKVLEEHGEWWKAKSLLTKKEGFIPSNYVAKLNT

Biological target: GST-hLynSH3 (human Lyn SH3 domain, amino acids 63-123, with N-terminal GST) (human) (UniProt P07948)
Test: pull-down

binding: binds
B1: His-tagged human thymidine phosphorylase (TYMP) (enzyme, UniProt P19971 11-482)
chain: APPAPGDFSGEGSQGLPDPSPEPKQLPELIRMKRDGGRLSEADIRGFVAAVVNGSAQGAQIGAMLMAIRLRGMDLEETSVLTQALAQSGQQLEWPEAWRQQLVDKHSTGGVGDKVSLVLAPALAACGCKVPMISGRGLGHTGGTLDKLESIPGFNVIQSPEQMQVLLDQAGCCIVGQSEQLVPADGILYAARDVTATVDSLPLITASILSKKLVEGLSALVVDVKFGGAAVFPNQEQARELAKTLVGVGASLGLRVAAALTAMDKPLGRCVGHALEVEEALLCMDGAGPPDLRDLVTTLGGALLWLSGHAGTQAQGAARVAAALDDGSALGRFERMLAAQGVDPGLARALCSGSPAERRQLLPRAREQEELLAPADGTVELVRALPLALVLHELGAGRSRAGEPLRLGVGAELLVDVGQRLRRGTPWLRVHRDGPALSGPQSRALQEALVLSDRAPFAAPSPFAELVLPPQQ
